# Measured values from patent US9145398B2, “Methods of treating CXCR4-expressing cancers” (University of Louisville Research Foundation, Inc., priority 2010, dated 2015).
# Protein sequences, listed by entry. Tags and fused reporters are not part of them.
# UniProt P61073, whole entry: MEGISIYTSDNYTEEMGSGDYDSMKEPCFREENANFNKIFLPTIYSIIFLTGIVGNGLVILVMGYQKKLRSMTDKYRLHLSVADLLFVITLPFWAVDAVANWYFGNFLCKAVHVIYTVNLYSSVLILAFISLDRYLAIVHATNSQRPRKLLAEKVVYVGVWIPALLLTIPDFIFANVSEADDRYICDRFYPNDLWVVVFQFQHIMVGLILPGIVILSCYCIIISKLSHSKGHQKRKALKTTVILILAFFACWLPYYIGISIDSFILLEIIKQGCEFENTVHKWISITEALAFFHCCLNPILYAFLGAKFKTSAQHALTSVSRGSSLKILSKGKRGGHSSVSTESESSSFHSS
# Some of these results come from one statement about several compounds together.
# Tests used:
# hCXCR4-GFP [1] = biological target: T1, hCXCR4-GFP (Homo sapiens, UniProt P61073); test: Chemotaxis assay, hCXCR4-GFP expressing 300.19 cells, CXCL12; type: cell-based; details: 50 μM test compound plus optimized CXCL12; normalized to CXCL12 plus DMSO control
# Protocol: Cells were suspended in chemotaxis buffer (RPMI 1640, 1% fetal bovine serum, 1 mM HEPES) at a concentration of 1×10^7 cells per ml. Cell chemotaxis was determined by examining the migration of the 300.19 cells in response to administration of 50 μM test compound plus an optimized concentration of CXCL12 using a chemotaxis assay that was previously described in Basu et al. (Basu et al., Critical role for polar residues in coupling leukotriene B4 binding to signal transduction in BLT1, J. Biol. Chem. (2007) Vol. 282, pp. 10005-17). 100 μL of 300.19 cells from the above cell suspension were placed in the upper chamber of a Transwell support (Corning Costar, Cambridge, Mass.) and were separated by a 5 micron filter from a bottom chamber containing 50 μM test compound plus the optimized concentration of CXCL12 in a final bottom chamber volume of 600 μl. After 3 h of incubation at 37° C. in 5% CO2, the upper chamber was removed and cells in the lower chamber were counted in a Bürker chamber. Cell counts for all samples were normalized to a CXCL12 plus DMSO control and results are reported using this normalized measure, referred to herein as the chemotaxis index. In some instances, the IC50 concentration (i.e., the concentration at which the chemotaxis index is reduced to 50% of the chemotaxis index of the CXCL12 plus DMSO control) of the test compounds was determined. All assays were performed a minimum of four times; error bars represent the standard deviation of the mean.
# hCXCR4-GFP [2] = biological target: T1, hCXCR4-GFP; test: Intracellular calcium mobilization assay, hCXCR4-GFP expressing 300.19 cells, CXCL12; type: cell-based; parameters: IC50 of intracellular calcium mobilization, CXCR4; other: CXCL12-mediated; other: 50 μM test compound; normalized Δ fluorescence (CXCR4, intracellular calcium mobilization); other: 50 μM test compound, 60 seconds pretreatm; details: 50 μM test compound, 60 seconds pretreatment, optimized CXCL12 (AMD3100 concentration not given)
# Protocol: Intracellular Calcium Mobilization Assay Method: The intracellular calcium mobilization assay used 300.19 cells which stably expressed hCXCR4-GFP, as described previously in Pello et al. (2008). Cells were loaded with INDO-I and then pretreated with the 50 μM of the test compound for 60 seconds prior to stimulation of intracellular calcium mobilization with an optimized concentration of CXCL12. […] The value Δ florescence is the difference between (a) the fluorescence ratio from cells before exposure to CXCL12 at its optimized concentration and (b) the fluorescence ratio from cells following stimulation with the optimized concentration of CXCL12. Decreases in Δ florescence correspond to decreases in intracellular calcium mobilization, and therefore, decreased signaling. As CXCL12 concentration was optimized for each test compound, results are presented as normalized Δ florescence which is Δ fluorescence divided by the fluorescence ratio of optimized CXCL12-only stimulation. In some instances, the IC50 concentration (concentration at which intracellular calcium mobilization is reduced to 50% of the Δ fluorescence of the CXCL12 plus DMSO control) of the test compounds was determined. All assays were performed a minimum of four times; error bars represent the standard deviation of the mean.
SMILES,chemotaxis index (CXCR4-mediated) (hCXCR4-GFP [1]),"normalized Δ fluorescence (CXCR4, intracellular calcium mobilization) (hCXCR4-GFP [2])"
"C(=C\N1CCCC1)/c1nnnn1-c1ccc2ccccc2c1 [Compound I-2, 1-(2-naphthyl)-5-(2-pyrrolidin-1-ylvinyl)tetrazole]",greater than 1,
"CCCCCc1ccc(-c2nnc(SCC(=O)c3ccc([N+](=O)[O-])cc3)[nH]2)cc1 [Compound I-3, 2-(5-(4-pentylphenyl)-4H-1,2,4-triazol-3-ylthio)-1-(4-nitrophenyl)ethanone]",greater than 1,less than 1
"CCOc1ccc(NCc2nc3ccccc3n2CCOc2ccccc2)cc1 [Compound I-8, 4-ethoxy-N-((1-(2-phenoxyethyl)-1H-benzo[d]imidazol-2-yl)methyl)benzenamine]",,less than 1
"CCCn1cnc2cc(NCc3nc4ccccc4n3C)ccc21 [Compound I-10, N-[(1-methylbenzoimidazol-2-yl)methyl]-1-propyl-benzoimidazol-5-amine]",greater than 1,less than 1
"COc1cc(CN2CCC3(CC2)Nc2ccccc2-n2cccc23)cc(OC)c1OC [Compound I-14, 1-[(3,4,5-trimethoxyphenyl)methyl]-spiro[piperidine-4,4′(5′H)-pyrrolo[1,2-a]quinoxaline]]",less than 1,greater than 1
"CN(C)CCCn1c(=N)n(CC(O)c2ccccc2)c2ccccc21 (stereo not drawn) [Compound I-17, 2-[3-(3-dimethylaminopropyl)-2-imino-benzoimidazol-1-yl]-1-phenyl-ethanol]",,greater than 1
"Cc1nc2cc(NCc3nc4ccccc4n3Cc3ccccc3)ccc2n1C [Compound I-22, N-[(1-benzylbenzoimidazol-2-yl)methyl]-1,2-dimethyl-benzoimidazol-5-amine]",,less than 1
"Cc1noc(NS(=O)(=O)c2ccc(Nc3nc4ccccc4nc3NS(=O)(=O)c3ccccc3)cc2)c1C [Compound I-24, N-(3,4-dimethylisoxazol-5-yl)-4-(3-phenylsulfonylaminoquinoxalin-2-yl)amino-benzenesulfonamide]",,less than 1
"CN(C)c1cccc(Nc2nc3ccccc3nc2NS(=O)(=O)c2ccc([N+](=O)[O-])cc2)c1 [Compound I-25, N-[3-(3-dimethylaminophenyl)aminoquinoxalin-2-yl]-4-nitro-benzenesulfonamide]",,less than 1
"Cc1ccc(N2C(=O)/C(=C/Nc3ccc(S(=O)(=O)Nc4ccc(O)cc4)cc3)c3ccccc3C2=O)cc1C [Compound I-28, 4-[[2-(3,4-dimethylphenyl)-1,3-dioxo-4-isoquinolylidene]methylamino]-N-(4-hydroxyphenyl)-benzenesulfonamide]",less than 1,
"Cc1nn(CC(=O)OCC(=O)c2cc(C)n(-c3c(C)n(C)n(-c4ccccc4)c3=O)c2C)c(C)c1[N+](=O)[O-] [Compound I-29, [2-[1-(1,5-dimethyl-3-oxo-2-phenyl-pyrazol-4-yl)-2,5-dimethyl-pyrrol-3-yl]-2-oxo-ethyl]2-(3,5-dimethyl-4-nitro-pyrazol-1-yl)acetate]",,greater than 1
"COc1ccc(Nc2nnc(SCC(=O)Nc3ccc(C)c(C)c3)s2)cc1 [Compound I-31, N-(3,4-dimethylphenyl)-2-[[5-(4-methoxyphenyl)amino-1,3,4-thiadiazol-2-yl]sulfanyl]acetamide]",,less than 1
"CCOC(=O)c1c(C)[nH]c(C(=O)COC(=O)c2c(-c3ccccc3)noc2C)c1C [Compound I-32, [2-(4-ethoxycarbonyl-3,5-dimethyl-1H-pyrrol-2-yl)-2-oxo-ethyl]5-methyl-3-phenyl-isoxazole-4-carboxylate]",,less than 1
"Cc1nn(CC(=O)OC(C)C(=O)Nc2cccc3ccccc23)c(C)c1[N+](=O)[O-] (stereo not drawn) [Compound I-34, 1-(1-naphthylcarbamoyl)ethyl 2-(3,5-dimethyl-4-nitro-pyrazol-1-yl)acetate]",less than 1,less than 1

# Second part, the compound after the results:
chemotaxis index (CXCR4-mediated) (hCXCR4-GFP [1]),"normalized Δ fluorescence (CXCR4, intracellular calcium mobilization) (hCXCR4-GFP [2])",SMILES
less than 1,greater than 1,"O=[N+]([O-])c1ccc(OCC(O)CNCc2ccc3c(c2)OCO3)cc1 (stereo not drawn) [Compound I-1, 1-[(1,3-benzodioxol-5-ylmethyl)amino]-3-(4-nitrophenoxy)propan-2-ol]"
,less than 1,"C=C(C)C1CC=C(CN(CCCN(C)C)CCCN(C)C)CC1 (stereo not drawn) [Compound I-6, N-(3-dimethylaminopropyl)-N-[(4-isopropenyl-1-cyclohexenyl)methyl]-N′,N′-dimethyl-propane-1,3-diamine]"
,less than 1,"COc1ccc(NCc2nc3ccccc3n2CCOc2ccccc2C)cc1 [Compound I-7, N-((1-(2-(o-tolyloxy)ethyl)-1H-benzo[d]imidazol-2-yl)methyl)-4-methoxybenzenamine]"
less than 1,,"CCOc1ccc(NCC(O)Cn2c3ccccc3n3c(=O)cc(C)c(C#N)c23)cc1 (stereo not drawn) [Compound I-15, 5-[3-[(4-ethoxyphenyl)amino]-2-hydroxypropyl]-1,5-dihydro-3-methyl-1-oxo-pyrido[1,2-a]benzimidazole-4-carbonitrile]"
,greater than 1,"O=[N+]([O-])c1ccc(OCC(O)CNCC2COc3ccccc3O2)cc1 (stereo not drawn) [Compound I-18, 1-[[(2,3-dihydro-1,4-benzodioxin-2-yl)methyl]amino]-3-(4-nitrophenoxy)-2-propanol]"
less than 1,less than 1,"Cn1c(CN2CCCCC2)nc2cc(NCc3ccccn3)ccc21 [Compound I-19, 1-methyl-2-(1-piperidylmethyl)-N-(2-pyridylmethyl)benzoimidazol-5-amine]"
less than 1,less than 1,"Cc1ccc(Cn2c3ccccc3n3cc(-c4ccc5c(c4)OCO5)nc23)cc1 [Compound I-20, 2-(1,3-benzodioxol-5-yl)-4-[(4-methylphenyl)methyl]imidazo[1,2-a]benzimidazole]"
,less than 1,"CC(NCC(O)COc1ccc([N+](=O)[O-])cc1)C1COc2ccccc2O1 (stereo not drawn) [Compound I-21, 1-[[1-(2,3-dihydro-1,4-benzodioxin-2-yl)ethyl]amino]-3-(4-nitrophenoxy)-2-propanol]"
greater than 1,less than 1,"N#Cc1nc(COc2ccc(-c3ccccc3)cc2)oc1NCCN1CCOCC1 [Compound I-23, 5-(2-morpholinoethylamino)-2-[(4-phenylphenoxy)methyl]oxazole-4-carbonitrile]"
greater than 1,greater than 1,"COc1ccc(CCNCC(O)COc2cccc(C(C)=O)c2)cc1OC (stereo not drawn) [Compound I-30, 1-[3-[3-[2-(3,4-dimethoxyphenyl)ethylamino]-2-hydroxy-propoxy]phenyl]ethanone]"
less than 1,greater than 1,"CC1CC=C(NNC(=O)c2cc(-c3ccccc3Cl)nc3ccccc23)CC1 (stereo not drawn) [Compound I-33, 2-(2-chlorophenyl)-N′-(4-methyl-1-cyclohexenyl)-quinoline-4-carbohydrazide]"
,less than 1,"Cc1ccc(NCC(=O)Nc2ncc(Cc3cccc(C(F)(F)F)c3)s2)cc1C [Compound I-37, 2-(3,4-dimethylphenyl)amino-N-[5-[[3-(trifluoromethyl)phenyl]methyl]thiazol-2-yl]-acetamide]"
